Data on 1 molecule can be found in publication PMC3397928.

Protein sequences, listed by entry. Tags and fused reporters are not part of them. Lines headed by an entry give the natural chain unless they say otherwise; changes in a name come on top.
UniProt P15304: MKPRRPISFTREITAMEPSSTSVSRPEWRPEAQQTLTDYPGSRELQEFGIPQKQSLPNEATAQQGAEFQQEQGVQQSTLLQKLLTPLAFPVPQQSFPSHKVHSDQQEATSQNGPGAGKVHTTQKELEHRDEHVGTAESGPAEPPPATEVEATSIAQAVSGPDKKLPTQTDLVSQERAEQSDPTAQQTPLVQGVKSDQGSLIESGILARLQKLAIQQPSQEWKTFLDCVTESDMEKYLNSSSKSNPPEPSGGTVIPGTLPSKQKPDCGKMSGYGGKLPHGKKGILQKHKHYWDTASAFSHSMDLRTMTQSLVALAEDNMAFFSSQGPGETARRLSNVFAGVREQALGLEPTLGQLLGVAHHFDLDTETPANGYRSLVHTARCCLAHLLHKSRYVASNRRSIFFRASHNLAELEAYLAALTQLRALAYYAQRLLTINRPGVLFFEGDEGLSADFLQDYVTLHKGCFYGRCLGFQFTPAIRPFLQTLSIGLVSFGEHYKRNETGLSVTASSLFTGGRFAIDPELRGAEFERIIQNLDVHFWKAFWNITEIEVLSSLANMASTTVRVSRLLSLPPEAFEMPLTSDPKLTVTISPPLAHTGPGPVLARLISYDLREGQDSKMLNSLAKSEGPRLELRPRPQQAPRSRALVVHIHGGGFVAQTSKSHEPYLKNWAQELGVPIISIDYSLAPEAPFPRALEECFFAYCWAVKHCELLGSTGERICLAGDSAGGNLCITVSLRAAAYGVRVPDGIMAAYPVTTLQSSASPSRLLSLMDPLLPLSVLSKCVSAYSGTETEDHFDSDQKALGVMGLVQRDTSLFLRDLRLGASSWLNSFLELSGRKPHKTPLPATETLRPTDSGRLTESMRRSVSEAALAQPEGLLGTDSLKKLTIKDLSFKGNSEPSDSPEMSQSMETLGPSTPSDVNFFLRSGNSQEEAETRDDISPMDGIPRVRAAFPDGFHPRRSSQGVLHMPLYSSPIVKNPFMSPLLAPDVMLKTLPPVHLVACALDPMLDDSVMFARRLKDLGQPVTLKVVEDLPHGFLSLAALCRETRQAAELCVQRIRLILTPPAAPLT

The target of the test is hormone-sensitive lipase (HSL) (rat (endogenous in primary epididymal adipocytes)) (UniProt P15304). Description: co-IP; pellet fraction lysate of primary adipocytes from sedentary control (CG) and habitual exercise (EG) rats, pre-cleared with rabbit normal IgG and protein A/G agarose; primary antibody to HSL or ATGL with protein A/G agarose beads at 4°C overnight; beads washed 4 times in ice-cold PBS; immunoblotting. (In general: A western blot detects proteins with antibodies after separation by electrophoresis.)

Results are given in words; binding and its absence hold for the method and conditions named. Binding seen in cells or lysates may run through a third protein. Binding calls can cover weak binding; strength is not graded here.

B1: perilipin 1 (protein, UniProt P43884 1-517)
chain: MSMNKGPTLLDGDLPEQENVLQRVLQLPVVSGTCECFQKTYNSTKEAHPLVASVCNAYEKGVQGASNLAAWSMEPVVRRLSTQFTAANELACRGLDHLEEKIPALQYPPEKIASELKGTISTRLRSARNSISVPIASTSDKVLGATLAGCELALGMAKETAEYAANTRVGRLASGGADLALGSIEKVVEYLLPPDKVESAPSSGRQKTQKAPKAKPSLLRRVSTLANTLSRHTMQTTARALKRGHSLAMWIPGVAPLSSLAQWGASAAMQVVSRRQSEVRVPWLHNLAASKDENHEDQTDTEGEETDEEEEEEESEAEENVLREVTALPTPLGFLGGVVHTVQKTLQNTISAVTWAPAAVLGTVGRILHLTPAQAVSSTKGRAMSLSDALKGVTDNVVDTVVHYVPLPRLSLMEPESEFQDIDNPPAEVERKGSGSRPASPESTARPGQPRAACAVRGLSAPSCPDLDDKTETSARPGLLAMPREKPARRVSDSFFRPSVMEPILGRTQYSQLRKKS
As to B1, the binding entry is recorded as “binds”.
